Source: publication PMC8604404, “Kinesin-binding protein remodels the kinesin motor to prevent microtubule binding” (Science Advances, 2021)
No constants are given. Whether binding was seen depends on the method and setting. Binding can be weak; no strength is given. Where a sequence is shown, tags or fusion partners need not be part of it.

Amino acid sequences for entries named in this document (tags omitted). A change or cut given only in a name is not applied to a line headed by its entry.
UniProt Q96EK5: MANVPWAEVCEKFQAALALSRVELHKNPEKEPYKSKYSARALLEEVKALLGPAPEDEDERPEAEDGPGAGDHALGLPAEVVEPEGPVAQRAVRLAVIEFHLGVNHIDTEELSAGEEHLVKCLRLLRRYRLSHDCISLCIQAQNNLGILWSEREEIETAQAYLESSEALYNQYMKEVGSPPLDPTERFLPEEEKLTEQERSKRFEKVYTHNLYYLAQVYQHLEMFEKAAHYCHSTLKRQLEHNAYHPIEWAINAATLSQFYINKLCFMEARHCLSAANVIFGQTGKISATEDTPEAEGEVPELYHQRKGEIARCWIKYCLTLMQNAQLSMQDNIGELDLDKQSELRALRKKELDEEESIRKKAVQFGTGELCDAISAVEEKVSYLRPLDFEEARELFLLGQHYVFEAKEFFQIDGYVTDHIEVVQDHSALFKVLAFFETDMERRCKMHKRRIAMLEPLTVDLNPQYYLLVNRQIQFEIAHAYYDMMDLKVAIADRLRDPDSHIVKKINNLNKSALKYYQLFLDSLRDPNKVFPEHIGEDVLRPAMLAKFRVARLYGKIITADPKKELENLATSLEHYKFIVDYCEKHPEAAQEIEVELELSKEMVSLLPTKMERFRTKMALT

Target: T1, His6-KIF15-N375 (KIF15 motor domain, amino acids 1 to 375) (human) (UniProt Q9NS87)
T1 sequence: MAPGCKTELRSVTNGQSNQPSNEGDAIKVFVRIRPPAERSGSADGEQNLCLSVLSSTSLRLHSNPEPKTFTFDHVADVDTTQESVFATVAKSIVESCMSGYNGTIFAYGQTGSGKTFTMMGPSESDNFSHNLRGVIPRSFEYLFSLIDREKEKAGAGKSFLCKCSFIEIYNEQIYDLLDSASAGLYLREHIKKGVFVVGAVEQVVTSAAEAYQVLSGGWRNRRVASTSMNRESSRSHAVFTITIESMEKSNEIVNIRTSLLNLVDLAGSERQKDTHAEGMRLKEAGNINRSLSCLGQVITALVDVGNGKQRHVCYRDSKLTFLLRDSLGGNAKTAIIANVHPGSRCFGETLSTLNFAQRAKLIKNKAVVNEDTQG
Assay: pull-down; His6-kinesin motor domain immobilised on Ni-NTA agarose, 20 ug KIFBP protein or GST in 200 ul, 10 mM Hepes pH 7.4, 50 mM KCl, 10 mM imidazole, 30 min at 4°C; Coomassie gel, ratio of KIFBP to kinesin in the pellet; both purified

For “KIFBP-HP9b^m (helix pair 9b mutant of KIFBP) (from UniProt Q96EK5)”, the binding was “binds”.
